Experimental data reported in patent publication EP2228429A1, “Shading dye and catalyst combination” (Unilever PLC, priority 2009, dated 2010).

Experiment: Example 7: shading of white cotton washed with Persil Colour containing direct violet 51 and bleach system
Procedure: White non-mercerised cotton sheeting was washed at 40°C in 5g/L Persil Colour for 30 minutes with a liquor to cloth ratio of 60:1. Persil Colour is a zeolite/anionic/non-ionic surfactant based washing powder. Direct Violet 51 was added to the powder such that 100 ppb of direct violet 51 was in the wash liquor.
The experiment was repeated with the addition of 10 micromolar catalyst with 10 millimolar peroxide and 2 micromolar catalyst with 2 millimolar peroxide. Following rinsing and drying the colour of the cloth was measured relative to a white cotton control cloth washed without addition of direct violet 51.

For `COc1cc(N=Nc2c(C)cc(C)cc2S(=O)(=O)[O-])c(C)cc1N=Nc1c(S(=O)(=O)[O-])cc2cc(Nc3ccccc3)ccc2c1O.[Na+].[Na+]` [Direct violet 51], which “fraction of the dye bleached in solution” value (high catalyst concentration (10 micromolar catalyst, 10 millimolar H2O2)) is on record?
The value was “approximately 2/3”.

And the loss of dye (low catalyst concentration (2 micromolar catalyst, 2 millimolar H2O2))?
Its loss of dye is “no dye is lost”.
